# For at least one entry, the source does not settle the construct or the ends of the probe.
# Tested on: ClPIF3 (Citrullus lanatus)
# Test: EMSA
# Details: Chemiluminescent EMSA Kit (Beyotime GS009); pH and temperature not stated; unlabeled competitor at 100-fold; recombinant protein; protein details: GST (N-terminal, pGEX-6P-1); label: biotin
sequence,measurement,value
AACATAGAAACGTGGAAATCAA (double strand) [ClPSY1 promoter G-box probe (G-box-B)],binding result,binds
